# Reference: PubChem BioAssay AID328 (DTP/NCI, 2004)
# The list shows only some results of the screen, not a fair sample: it gathers tests that were run many times, whatever their T/C, doses with no T/C, and many T/C values between a quarter and a half above the control. Further doses and runs are listed elsewhere. T/C is the treated group as % of the vehicle group. Some doses have a count of surviving animals in place of a T/C: the source files T/C as zero there, which appears to mark a toxic dose or a test without result, not a measured value. Some survivor counts are full or nearly so, which does not show that the dose was tolerated: survival well below the control is almost never listed, so the zero probably covers shortened survival too. Counts of survivors are from the toxicity check (mostly the fifth day) where no day follows; animals may have died later. Schedule codes are those of the source, read here as Q, the interval in days (D) or hours (H), X, the number of doses. Where survival is the endpoint, the PubChem record calls one and a half times the control and up active, and a quarter to a half above the control has no call in these data; cut-offs in other NCI protocols can differ. Some T/C values are followed by the survivors on the day toxicity was checked, most often the fifth; where none is given, no animal had died by that day. Some entries were tested several times; their values stand side by side, smallest first.
# System: BDF1 mice, P388 leukemia ip, median survival T/C
# Test: NCI In Vivo Anticancer Drug Screen. Data for tumor model P388 Leukemia (intraperitoneal) in B6D2F1 (BDF1) mice
# Details: T/C endpoint: median survival time, higher T/C = longer survival
# Procedure, shortened: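 In tumour-bearing mice, survival after compound treatment is set against the vehicle group and given as a quotient.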
# [1] = dose: 100.0 mg/kg/injection, schedule: Q01DX009 (ip), vehicle: Klucel (hydroxypropylcellulose) (HPC)
# [2] = dose: 50.0 mg/kg/injection, schedule: Q01DX005 (ip), vehicle: saline with Tween-80
# [3] = dose: 50.0 mg/kg/injection, schedule: Q01DX009 (ip), vehicle: Klucel (hydroxypropylcellulose) (HPC)
# [4] = dose: 400.0 mg/kg/injection, schedule: Q01DX009 (ip), vehicle: saline
# [5] = dose: 100.0 mg/kg/injection, schedule: Q01DX009 (ip), vehicle: saline with Tween-80
# [6] = dose: 200.0 mg/kg/injection, schedule: Q01DX009 (ip), vehicle: saline with Tween-80
# [7] = dose: 50.0 mg/kg/injection, schedule: Q01DX009 (ip), vehicle: saline with Tween-80
# [8] = dose: 400.0 mg/kg/injection, schedule: Q04DX003 (ip), vehicle: saline with Tween-80
smiles,measurement,setting,value
Nc1cc(Cl)ncn1,survivor count,[1],5 of 6
same,survivor count,"dose: 265.0 mg/kg/injection, schedule: Q01DX009 (ip), vehicle: saline",6 of 6
same,T/C,"dose: 400.0 mg/kg/injection, schedule: Q01DX009 (ip), vehicle: Klucel (hydroxypropylcellulose) (HPC)",129 % of control
O=C(Nc1ccc([N+](=O)[O-])cc1)Nc1ccc([N+](=O)[O-])c(C(F)(F)F)c1,survivor count,"dose: 170.0 mg/kg/injection, schedule: Q01DX009 (ip), vehicle: Klucel (hydroxypropylcellulose) (HPC)",6 of 6
same,survivor count,"dose: 225.0 mg/kg/injection, schedule: Q01DX009 (ip), vehicle: Klucel (hydroxypropylcellulose) (HPC)",5 of 6
C=CCc1c2[n+](cc3c(OC)c(OC)ccc13)CCc1cc3c(cc1-2)OCO3,survivor count,"dose: 3.12 mg/kg/injection, schedule: Q01DX005 (ip), vehicle: saline",6 of 6
same,survivor count,"dose: 6.25 mg/kg/injection, schedule: Q01DX005 (ip), vehicle: saline",6 of 6
same,survivor count,"dose: 12.5 mg/kg/injection, schedule: Q01DX005 (ip), vehicle: saline",0 of 6
same,survivor count,[2],0 of 6
same,survivor count,"dose: 100.0 mg/kg/injection, schedule: Q01DX005 (ip), vehicle: saline with Tween-80",0 of 6
same,survivor count,"dose: 200.0 mg/kg/injection, schedule: Q01DX005 (ip), vehicle: saline with Tween-80",0 of 6
O=S(=O)(OCC#CCOS(=O)(=O)c1ccc(Cl)c(Cl)c1)c1ccc(Cl)c(Cl)c1,T/C,[3],125 % of control
OC(c1ccccc1)(C1CCNCC1)C1CC1 (stereo not drawn),survivor count,"dose: 200.0 mg/kg/injection, schedule: Q01DX001 (ip), vehicle: saline",2 of 6
CC1CN1P(=O)(Oc1ccccc1)N1CC1C (stereo not drawn),survivor count,"dose: 150.0 mg/kg/injection, schedule: Q01DX009 (ip), vehicle: saline",6 of 6
same,survivor count,"dose: 200.0 mg/kg/injection, schedule: Q01DX009 (ip), vehicle: saline",6 of 6
same,survivor count,[4],4 of 6
c1cc2c3c(c1)ncn3CCC2,survivor count,"dose: 100.0 mg/kg/injection, schedule: Q04DX003 (ip), vehicle: other",6 of 6
same,survivor count,"dose: 200.0 mg/kg/injection, schedule: Q04DX003 (ip), vehicle: other",4 of 6
C[N+]1(C)N=C([O-])N(c2ccccc2[N+](=O)[O-])C1=O,survivor count,[5],5 of 6
same,survivor count,[6],5 of 6
N=C(N)c1ccc(Oc2ccc(Oc3ccc(C(=N)N)cc3)cc2)cc1,survivor count,[7],0 of 6
same,survivor count,[5],0 of 6
same,survivor count,[6],0 of 6
CC1(O)C=CC(=O)C=C1,T/C,"dose: 12.5 mg/kg/injection, schedule: Q01DX009 (ip), vehicle: water",125 % of control
same,survivor count,"dose: 100.0 mg/kg/injection, schedule: Q01DX009 (ip), vehicle: water",0 of 5
C[C@@]1(O)CCCC[C@H]1O,survivor count,[4],3 of 6
CCC1(O)CC2CN(CCc3c([nH]c4ccccc34)C(C(=O)OC)(c3cc4c(cc3OC)N(C)C3C(O)(C(=O)NCCSSCCNC(=O)C5(O)C(O)C6(CC)C=CCN7CCC8(c9cc(C%10(C(=O)OC)CC%11CN(CCc%12c%10[nH]c%10ccccc%12%10)CC(O)(CC)C%11)c(OC)cc9N(C)C58)C76)C(O)C5(CC)C=CCN6CCC43C65)C2)C1 (stereo not drawn),survivor count,"dose: 2000.0 micrograms/kg/injection, schedule: Q04DX003 (ip), vehicle: saline",5 of 8
same,survivor count,"dose: 3000.0 micrograms/kg/injection, schedule: Q04DX003 (ip), vehicle: saline",8 of 8
O[C@H](CN1CC1)[C@@H](O)CN1CC1,survivor count,"dose: 1000.0 micrograms/kg/injection, schedule: Q01DX010 (ip), vehicle: saline",6 of 6
CN1CCN(C2=Nc3ccccc3Cc3ccccc32)CC1,survivor count,[5],5 of 6
same,survivor count,[6],1 of 6
Clc1[nH]nc2ccccc12,survivor count,"dose: 25.0 mg/kg/injection, schedule: Q01DX009 (ip), vehicle: saline with Tween-80",6 of 6
same,survivor count,[7],6 of 6
O=C1N[C@@H]([C@H]2CC[C@H](Cl)CN2)C(=O)N[C@H]1[C@H]1CC[C@H](Cl)CN1,T/C,"dose: 0.05 mg/kg/injection, schedule: Q01DX010 (ip), vehicle: saline",136 % of control
same,T/C,"dose: 1.25 mg/kg/injection, schedule: Q01DX001 (ip), vehicle: saline",140 % of control
same,T/C,"dose: 4.4 mg/kg/injection, schedule: Q01DX001 (ip), vehicle: saline","142, 158, 172, 213, 237, 241, 272 % of control"
same,T/C,"dose: 6.7 mg/kg/injection, schedule: Q01DX001 (ip), vehicle: saline","200, 206, 245, 255, 262, 283, 285 % of control"
same,T/C,"dose: 10.0 mg/kg/injection, schedule: Q01DX001 (ip), vehicle: saline, evaluated on day 30",272 % of control
same,T/C,"dose: 10.0 mg/kg/injection, schedule: Q01DX001 (ip), vehicle: saline, evaluated on day 60","194, 232, 302 [9 of 10 alive], 315 [9 of 10 alive], 362, 505, 532 % of control"
c1ccc(-c2oc3cc4c(cc3c2-c2ccc(OCCN3CCCC3)cc2)CCC4)cc1,survivor count,"dose: 200.0 mg/kg/injection, schedule: Q04DX003 (ip), vehicle: saline with Tween-80",6 of 6
same,survivor count,[8],4 of 6
CCOC(=O)c1cc2nc3ccccn3c(=O)c2cc1N,T/C,[7],125 % of control
Cc1c(Cl)cc(Cl)c(N)c1Cl,survivor count,"dose: 100.0 mg/kg/injection, schedule: Q04DX003 (ip), vehicle: saline with Tween-80",5 of 6
O=C1/C(=C\c2ccccc2)OC(c2ccccc2)O/C1=C/c1ccccc1 (stereo not drawn),survivor count,[4],4 of 6
Cc1cc(C)nc(NS(=O)(=O)c2ccc(NC(=O)C(Cl)(Cl)Cl)cc2)n1,survivor count,[2],5 of 5
O=[N+]([O-])c1ccc(Cl)nc1,T/C,[7],136 % of control
same,T/C,[5],136 % of control
Cc1c(C#N)c2n(c1C)CCN2,survivor count,[3],6 of 6
same,survivor count,[1],6 of 6
CC[N+](CC)(CC)CCCCCCCC[N+](CC)(CC)CC,survivor count,"dose: 4.0 mg/kg/injection, schedule: Q01DX009 (ip), vehicle: water",2 of 6
same,survivor count,"dose: 4.0 mg/kg/injection, schedule: Q04DX003 (ip), vehicle: water",2 of 6
same,survivor count,"dose: 6.0 mg/kg/injection, schedule: Q01DX009 (ip), vehicle: water",0 of 6
same,survivor count,"dose: 6.0 mg/kg/injection, schedule: Q04DX003 (ip), vehicle: water",0 of 6
CCC[CH2][Sn]1([CH2]CCC)[O]OC(c2ccc(OC)cc2)[O]1 (stereo not drawn),survivor count,"dose: 12.5 mg/kg/injection, schedule: Q01DX009 (sc), vehicle: olive oil, sesame oil, peanut oil",6 of 6
same,survivor count,"dose: 25.0 mg/kg/injection, schedule: Q01DX009 (sc), vehicle: olive oil, sesame oil, peanut oil",4 of 6
N#Cc1cn(C2OC(CO)C(O)C2O)c2nc(Cl)nc(N)c12 (stereo not drawn),T/C,"dose: 3.12 mg/kg/injection, schedule: Q04DX003 (ip), vehicle: saline",140 % of control
same,survivor count,"dose: 50.0 mg/kg/injection, schedule: Q04DX003 (ip), vehicle: saline",6 of 6
CN1CCC(CN2c3ccccc3Sc3ccccc32)CC1,survivor count,"dose: 1.56 mg/kg/injection, schedule: Q01DX009 (ip), vehicle: Klucel (hydroxypropylcellulose) (HPC)",6 of 6
same,survivor count,"dose: 6.25 mg/kg/injection, schedule: Q01DX009 (ip), vehicle: Klucel (hydroxypropylcellulose) (HPC)",6 of 6
same,survivor count,[8],0 of 6
C=C1C(=O)OC2/C=C(\C)C(=O)/C=C\C(C)(O)CC(OC(=O)C(C)C)C12 (stereo not drawn),survivor count,"dose: 50.0 mg/kg/injection, schedule: Q01DX009 (ip), vehicle: saline + alcohol",1 of 4
same,survivor count,"dose: 100.0 mg/kg/injection, schedule: Q01DX009 (ip), vehicle: saline + alcohol",0 of 4
CC(=O)Nc1ccc(S(=O)(=O)SC(F)(F)F)cc1,survivor count,"dose: 25.0 mg/kg/injection, schedule: Q01DX010 (ip), vehicle: saline",2 of 6
same,survivor count,"dose: 50.0 mg/kg/injection, schedule: Q01DX010 (ip), vehicle: saline",1 of 6
same,survivor count,"dose: 100.0 mg/kg/injection, schedule: Q01DX010 (ip), vehicle: saline",1 of 6
same,survivor count,"dose: 200.0 mg/kg/injection, schedule: Q01DX010 (ip), vehicle: saline",0 of 6
CCC(C)SC1=NC=NC2=NC=NC21 (stereo not drawn),survivor count,[6],3 of 6
same,survivor count,[8],1 of 6
